Substitutions are numbered along the chain they refer to. Names and notes keep the numbering of the source. These are yes or no findings as the source states them, for the method shown. For part of these data: Binding can be weak; no strength is given. For part of these data: Sequences can lack the tags named with a protein. For part of these data: In cells and extracts the contact can be indirect. Values belong to the molecule of their own block, whether it stands above or below them.
Key:
[1] = target: T1, MBP-TECPR2 (935-1411 aa) (human) (UniProt O15040); assay: pull-down
T1 sequence: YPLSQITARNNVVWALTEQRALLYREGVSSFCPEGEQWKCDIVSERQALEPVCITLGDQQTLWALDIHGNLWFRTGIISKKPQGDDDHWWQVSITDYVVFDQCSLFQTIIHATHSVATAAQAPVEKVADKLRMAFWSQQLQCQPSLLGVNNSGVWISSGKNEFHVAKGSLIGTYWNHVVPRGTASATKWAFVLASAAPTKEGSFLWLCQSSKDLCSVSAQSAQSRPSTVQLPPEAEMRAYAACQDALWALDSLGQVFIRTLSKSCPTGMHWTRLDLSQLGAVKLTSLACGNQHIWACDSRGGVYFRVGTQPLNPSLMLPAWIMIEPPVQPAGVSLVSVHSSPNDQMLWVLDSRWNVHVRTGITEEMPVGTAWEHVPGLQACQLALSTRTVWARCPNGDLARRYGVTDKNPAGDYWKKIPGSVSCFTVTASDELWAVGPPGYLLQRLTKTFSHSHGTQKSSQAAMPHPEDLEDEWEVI

[2] = target: GST-Rab5 (Q79L); assay: pull-down
[3] = target: GST-Rab5 (S34N); assay: pull-down
[4] = target: GFP-Rab5 (Q79L); assay: co-IP
[5] = target: GFP-Rab5 (S34N); assay: co-IP
[6] = target: GFP-Rab5 (WT); assay: co-IP
[7] = target: Rab5 (Q79L); assay: two-hybrid
[8] = target: endogenous Rab5 (human (endogenous in HEK293T)); assay: co-IP
[9] = target: Rab5 (S34N); assay: two-hybrid
[10] = target: Rab5 (WT); assay: two-hybrid

- binding [1]: binds
Molecule: GFP-Rab5 (Q79L)

- binding [2]: binds
- binding [3]: binds weakly
B1: MBP-TECPR2 (935-1411 aa) (domain or fragment, UniProt O15040 935-1411)
chain: T1 sequence

- binding [4]: binds
- binding [5]: binds weakly
- binding [6]: binds
B2: FLAG-TECPR2 (WT) (protein, UniProt O15040 1-1411)
chain: MASISEPVTFREFCPLYYLLNAIPTKIQKGFRSIVVYLTALDTNGDYIAVGSSIGMLYLYCRHLNQMRKYNFEGKTESITVVKLLSCFDDLVAAGTASGRVAVFQLVSSLPGRNKQLRRFDVTGIHKNSITALAWSPNGMKLFSGDDKGKIVYSSLDLDQGLCNSQLVLEEPSSIVQLDYSQKVLLVSTLQRSLLFYTEEKSVRQIGTQPRKSTGKFGACFIPGLCKQSDLTLYASRPGLRLWKADVHGTVQATFILKDAFAGGVKPFELHPRLESPNSGSCSLPERHLGLVSCFFQEGWVLSWNEYSIYLLDTVNQATVAGLEGSGDIVSVSCTENEIFFLKGDRNIIRISSRPEGLTSTVRDGLEMSGCSERVHVQQAEKLPGATVSETRLRGSSMASSVASEPRSRSSSLNSTDSGSGLLPPGLQATPELGKGSQPLSQRFNAISSEDFDQELVVKPIKVKRKKKKKKTEGGSRSTCHSSLESTPCSEFPGDSPQSLNTDLLSMTSSVLGSSVDQLSAESPDQESSFNGEVNGVPQENTDPETFNVLEVSGSMPDSLAEEDDIRTEMPHCHHAHGRELLNGAREDVGGSDVTGLGDEPCPADDGPNSTQLPFQEQDSSPGAHDGEDIQPIGPQSTFCEVPLLNSLTVPSSLSWAPSAEQWLPGTRADEGSPVEPSQEQDILTSMEASGHLSTNLWHAVTDDDTGQKEIPISERVLGSVGGQLTPVSALAASTHKPWLEQPPRDQTLTSSDEEDIYAHGLPSSSSETSVTELGPSCSQQDLSRLGAEDAGLLKPDQFAESWMGYSGPGYGILSLVVSEKYIWCLDYKGGLFCSALPGAGLRWQKFEDAVQQVAVSPSGALLWKIEQKSNRAFACGKVTIKGKRHWYEALPQAVFVALSDDTAWIIRTSGDLYLQTGLSVDRPCARAVKVDCPYPLSQITARNNVVWALTEQRALLYREGVSSFCPEGEQWKCDIVSERQALEPVCITLGDQQTLWALDIHGNLWFRTGIISKKPQGDDDHWWQVSITDYVVFDQCSLFQTIIHATHSVATAAQAPVEKVADKLRMAFWSQQLQCQPSLLGVNNSGVWISSGKNEFHVAKGSLIGTYWNHVVPRGTASATKWAFVLASAAPTKEGSFLWLCQSSKDLCSVSAQSAQSRPSTVQLPPEAEMRAYAACQDALWALDSLGQVFIRTLSKSCPTGMHWTRLDLSQLGAVKLTSLACGNQHIWACDSRGGVYFRVGTQPLNPSLMLPAWIMIEPPVQPAGVSLVSVHSSPNDQMLWVLDSRWNVHVRTGITEEMPVGTAWEHVPGLQACQLALSTRTVWARCPNGDLARRYGVTDKNPAGDYWKKIPGSVSCFTVTASDELWAVGPPGYLLQRLTKTFSHSHGTQKSSQAAMPHPEDLEDEWEVI

- binding [4]: no binding
B3: FLAG-TECPR2 (R1336W) (protein, UniProt O15040 1-1411)
chain: B2 chain with R1336W

- binding [7]: no binding
B4: TECPR2 (R1336W) (protein, UniProt O15040 1-1411)
chain: B2 chain with R1336W

- binding [4]: binds
B5: FLAG-TECPR2 (I1256A) (protein, UniProt O15040 1-1411)
chain: B2 chain with I1256A

- binding [8]: binds
B6: endogenous TECPR2 (protein, UniProt O15040 1-1411)
chain: B2 chain

- binding [4]: binds
B7: FLAG-TECPR2 (T903M) (protein, UniProt O15040 1-1411)
chain: B2 chain with T903M

- binding [4]: no binding
B8: FLAG-TECPR2 (D1000Y) (protein, UniProt O15040 1-1411)
chain: B2 chain with D1000Y

- binding [7]: binds
- binding [9]: no binding
- binding [10]: binds
B9: TECPR2 (WT) (protein, UniProt O15040 1-1411)
chain: B2 chain

Reference: paper doi:10.1101/2024.10.03.616509
